Experimental findings from publication PMC7819943, “Rice protein-binding microarrays: a tool to detect cis-acting elements near promoter regions in rice” are described below.

Protein sequences, listed by entry. Tags and fused reporters are not part of them.
UniProt Q0JBA9, entry or part of it: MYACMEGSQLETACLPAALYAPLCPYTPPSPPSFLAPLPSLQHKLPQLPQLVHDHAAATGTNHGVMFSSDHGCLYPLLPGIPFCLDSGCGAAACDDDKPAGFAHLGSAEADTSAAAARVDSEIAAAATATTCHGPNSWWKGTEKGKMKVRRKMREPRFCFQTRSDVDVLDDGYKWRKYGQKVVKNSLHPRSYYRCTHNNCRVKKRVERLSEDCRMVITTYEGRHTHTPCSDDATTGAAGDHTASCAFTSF

The other results are listed elsewhere or left out.

This test concerns the target OsWRKY34 (Oryza sativa, UniProt Q0JBA9 1-250). Description: protein-binding microarray (RPBM); PBS, 2% BSA, 51.3 ng/ul salmon testes DNA, 50 uM zinc acetate, 200 nM TF, 25 C, 1 h; high values mean tight binding. The following applies: protein: recombinant; tags: N-terminal polyhistidine and DsRed monomer fusion (pET32a); label: CyDye5-dUTP incorporated in the synthesized complementary strand; 3' TTTTT single-stranded linker to array surface; dsDNA, one strand shown. The procedure, abridged:
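The binding signal is fluorescence intensity per array feature (arbitrary units). Readings came from an Axon 4000B scanner after a washed, 2% BSA-blocked, double-stranded custom Agilent array had been incubated for 1 h at 25 °C with 200 nM protein and 50 µM zinc acetate. The protein was a Ni–NTA-purified transcription factor fused N-terminally to polyhistidine and DsRed, expressed in E. coli BL21-CodonPlus.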
Regarding “CAGTTTTGTTCTTTGTGATAACTCCATGTCTCAATCTTCACGGAGTCACCTAGTGCAG”, the binding signal is 10500 fluorescence intensity (a.u.).
In the case of “CTTCTACCGCTACATCGTCTGCTCACCTTGGAGAAGTTTCCGGAGTCACCTAGTGCAG”, the binding signal is 8890 fluorescence intensity (a.u.).
For “CGCTGCCTCTTCGCTCGTCTCCGTCGAGTCCGTCACGCAGCGGAGTCACCTAGTGCAG”, the binding signal was 8410 fluorescence intensity (a.u.).
Turning to “AATACATTTTACCTCGATTGTTATTAGCATATTTTTTTTGCGGAGTCACCTAGTGCAG”, the binding signal is 8890 fluorescence intensity (a.u.).
Next, “GCCGTATTCTCTCTTTACTCCCGGTTGGTGTTACCAACCGCGGAGTCACCTAGTGCAG”: 9980 fluorescence intensity (a.u.); “TGTTTTTTTTTTGTAAGTTTAGTGGCATTCACATCCCATTCGGAGTCACCTAGTGCAG”: 8270 fluorescence intensity (a.u.); “CGCTGCGGGGAGTCGGCGCTTCGTCGGAGGCGGCGGGGCGCGGAGTCACCTAGTGCAG”: 9420 fluorescence intensity (a.u.).
In the case of “ACCTAAATTAGTAGAACGAATCTTTCCTTTTCTCTCTTTTCGGAGTCACCTAGTGCAG”, the binding signal was 8280 fluorescence intensity (a.u.).
Next, “ACAAATTATTAATGGTTTTGTTTTCCGAAATGTTTTTTATCGGAGTCACCTAGTGCAG”: 8440 fluorescence intensity (a.u.); “AATGTTTGACCATTCGTCTTATTCAAAAAATTTATGTAATCGGAGTCACCTAGTGCAG”: 9900 fluorescence intensity (a.u.).
Then “ACTACTATGCATTATTGCAACCGCCACCTCTTTTCATGTTCGGAGTCACCTAGTGCAG”, with 9040 fluorescence intensity (a.u.).
Then “GCACTGTTTTGTAAGTTGGGTGATGAGTTATACCCGGTTTCGGAGTCACCTAGTGCAG”, with 8090 fluorescence intensity (a.u.).
Take “TCTTACATATTTGACCATTCGTCTTATCCAAAAATTTTATCGGAGTCACCTAGTGCAG”: the binding signal was 8590 fluorescence intensity (a.u.).
Then “TCTCCCCAACTTCCACCGCTAATTTCCGCCGCTGGCTTCGCGGAGTCACCTAGTGCAG”, with 8080 fluorescence intensity (a.u.); and “GCTTACCATGAGAATAGGTTTATGGTCCTCTAGTTTTTCACGGAGTCACCTAGTGCAG”, with 8310 fluorescence intensity (a.u.); and “AGTACTTGAGTTGAGACATTGTTATTCTTTTATTCCCTTTCGGAGTCACCTAGTGCAG”, with 9160 fluorescence intensity (a.u.).
Next, “CATTCCCAGCTGCTCCATGCTGCTGCCGCCCTCTCGTCCTCGGAGTCACCTAGTGCAG”: 8370 fluorescence intensity (a.u.); “GGGATTTGGGAAGAAAGGGAGGTATACAGTGGAGAGATAGCGGAGTCACCTAGTGCAG”: 8690 fluorescence intensity (a.u.).
In the case of “CCTAGGTGCTCATTCCACCGCCATCGCCTCCGGCGAACTCCGGAGTCACCTAGTGCAG”, the binding signal is 8050 fluorescence intensity (a.u.).
Then “AGGTACAATAATCTGCCATTTTTTTATTTGTTATTTACAACGGAGTCACCTAGTGCAG”, with 10700 fluorescence intensity (a.u.); and “TAATTTTTTATTCGTATCTGAAAACCACTTTCGACATCCACGGAGTCACCTAGTGCAG”, with 8570 fluorescence intensity (a.u.); and “GCAGGTCAAGCGGTCACCCTCACTCCACCATTGTCATCTTCGGAGTCACCTAGTGCAG”, with 9440 fluorescence intensity (a.u.).
Then “CGCACGCGTCTCCCAATTCCCAAACTTTCCCTTATTATTCCGGAGTCACCTAGTGCAG”, with 9320 fluorescence intensity (a.u.).
Then “ACATCCCGTCCATTGCTCCTAGCACACGCATGCGTCGCCACGGAGTCACCTAGTGCAG”, with 8720 fluorescence intensity (a.u.); and “TCCTCCCATCTCATTCTCATCTCACCATCCCACGCTTTTGCGGAGTCACCTAGTGCAG”, with 9570 fluorescence intensity (a.u.); and “CGACGCGTGGACGCATCCTGTCCATCCATCACCTCCACCGCGGAGTCACCTAGTGCAG”, with 9560 fluorescence intensity (a.u.).
Turning to “TATTTTTACCTTTTGCATCACTTTGGACCACCCAACACACCGGAGTCACCTAGTGCAG”, the binding signal was 9830 fluorescence intensity (a.u.).
Regarding “CGAGGTTCTTTGCTTCATACTTTTTTTTGGTGTTCTACTTCGGAGTCACCTAGTGCAG”, the binding signal was 11200 fluorescence intensity (a.u.).
As to “TCCACATTCTGAAAACTTCAGTCTTTCTCTCTTCAGCATCCGGAGTCACCTAGTGCAG”, the binding signal was 9290 fluorescence intensity (a.u.).
Next, “TTCCTGTCACCTGAATATGGCTCCTTAGCATGAATATCTCCGGAGTCACCTAGTGCAG”: 8240 fluorescence intensity (a.u.); “AGAACATGACTCTATTCTGATTCTCTTATCCTTTCTAATGCGGAGTCACCTAGTGCAG”: 8250 fluorescence intensity (a.u.).
Next, “CCCGCCACCTCTACCTCGATGCGGCCCCGAATCCACCTGCCGGAGTCACCTAGTGCAG”: 9060 fluorescence intensity (a.u.); “TTTCCATTTTTCTTACTGCTCCACATAATTCCTATTTCCCCGGAGTCACCTAGTGCAG”: 10200 fluorescence intensity (a.u.); “CCAAGAGTCTGCTACGCTCCATCACCCCAACACATCTATTCGGAGTCACCTAGTGCAG”: 8840 fluorescence intensity (a.u.).
Then “GCTGTTCAGTTTTAGGGGCAAAATATTCACCAAAACTTGTCGGAGTCACCTAGTGCAG”, with 8030 fluorescence intensity (a.u.); and “TTTCGATTGTTGTTTATTTTCCAGCATTAGTTTTTAAATCCGGAGTCACCTAGTGCAG”, with 8320 fluorescence intensity (a.u.).
“CAGCTCGCACAACGATCTTTCACCACCACTGCACGAAAACCGGAGTCACCTAGTGCAG”: the binding signal was 8480 fluorescence intensity (a.u.).
Then “AGCACCGACCGCCAGTAACTGTTTTTTTTTTCCCTCGTGGCGGAGTCACCTAGTGCAG”, with 9320 fluorescence intensity (a.u.).
For the sequence “ATCATTTTTCGGTGTTTACTTTGTTGGATCCAGCGGAGAACGGAGTCACCTAGTGCAG”, the binding signal was 8390 fluorescence intensity (a.u.).
Then “AGCCCACTGTCCATAATCTCCAGCCCAGTAACAGCCCAATCGGAGTCACCTAGTGCAG”, with 8770 fluorescence intensity (a.u.).
Next, “GTTTATTGTCCTTTCAGGTTTGCTGTCATTTTCTCGGGAACGGAGTCACCTAGTGCAG”: 9400 fluorescence intensity (a.u.); “GCACCCATATATTTGTAAGGCAAAGGACAAGTTGCATTCTCGGAGTCACCTAGTGCAG”: 9670 fluorescence intensity (a.u.).
